Experimental data from patent publication US20220289816A1, “IMMUNOTHERAPY WITH B*07 RESTRICTED PEPTIDES AND COMBINATION OF PEPTIDES AGAINST CANCERS AND RELATED METHODS” (Immatics Biotechnologies GmbH, priority 2018, published 2022).

Test system: tumor tissue samples and normal tissue samples (HLA-B*07 positive)
Assay: Identification and quantitation of tumor associated peptides presented on the cell surface (HLA immunoprecipitation, label-free LC-MS)
Set-up: species or system human
Conditions: Table 8a; cancer entities on which the peptide was found presented (abbreviations in table head)

Substance	Peptide Presentation on cancer entities
193 (LPALKEEAF; listed as Homo sapiens) [compound 193]	PRCA
194 (HPNKIKASL; listed as Homo sapiens) [compound 194]	BRCA
195 (NPIFGRKEL; listed as Homo sapiens) [compound 195]	UEC
200 (EPFHLIVSY; listed as Homo sapiens) [compound 200]	CRC, HNSCC, MEL, NSCLCadeno, NSCLCsquam, OSCAR, RCC, SCLC
201 (LPIARVLTV; listed as Homo sapiens) [compound 201]	UEC
203 (KPRGPIDI; listed as Homo sapiens) [compound 203]	CRC, GBC, NSCLCadeno
204 (FPYSGDKILV; listed as Homo sapiens) [compound 204]	SCLC, UBC, UEC
206 (TPRIGPKVSL; listed as Homo sapiens) [compound 206]	AML, BRCA, CCC, CLL, CRC, GBC, GBM, GC, HCC, HNSCC, MEL, NSCLCadeno, NSCLCsquam, OSCAR, PACA, RCC, SCLC, UBC, UEC
207 (VPSDITTAF; listed as Homo sapiens) [compound 207]	NSCLCadeno, OSCAR, SCLC
209 (KIEQIRAVL; listed as Homo sapiens) [compound 209]	OSCAR
210 (IPENRVVSY; listed as Homo sapiens) [compound 210]	OSCAR
211 (IPDTIASVL; listed as Homo sapiens) [compound 211]	MEL
212 (VPYAAQAAL; listed as Homo sapiens) [compound 212]	BRCA
214 (LPLKFFPII; listed as Homo sapiens) [compound 214]	UEC
218 (VQRTPPPI; listed as Homo sapiens) [compound 218]	GC, NSCLCadeno, NSCLCsquam, OSCAR
219 (VPHTGRYTCL; listed as Homo sapiens) [compound 219]	RCC
221 (LPQRPNARL; listed as Homo sapiens) [compound 221]	CCC, CRC, GBC, GC, HCC, HNSCC, MEL, NSCLCadeno, NSCLCsquam, OC, OSCAR, PACA, PRCA, RCC, SCLC, UBC, UEC
223 (KAHVRIEL; listed as Homo sapiens) [compound 223]	CRC
226 (APGGSSRSSL; listed as Homo sapiens) [compound 226]	AML
229 (FPNAGPRHLL; listed as Homo sapiens) [compound 229]	AML, CLL, NHL, OC, RCC
232 (TAYPSLRLL; listed as Homo sapiens) [compound 232]	BRCA, HCC, MEL, NHL, NSCLCadeno, NSCLCsquam, PACA, SCLC, UEC
233 (MAYDRFIAI; listed as Homo sapiens) [compound 233]	CRC, GBC, NSCLCadeno, RCC
234 (HPRAPGEQQRL; listed as Homo sapiens) [compound 234]	BRCA, CRC, UEC

Substance	Peptide Presentation on cancer entities
235 (AQNPAGTAL; listed as Homo sapiens) [compound 235]	MEL
237 (LPRAGGAF; listed as Homo sapiens) [compound 237]	GBC, GC, NSCLCadeno, PACA, RCC
238 (LPRAGGAFLM; listed as Homo sapiens) [compound 238]	HNSCC
239 (VLPRAGGAFLM; listed as Homo sapiens) [compound 239]	NSCLCadeno
241 (LPKAALLV; listed as Homo sapiens) [compound 241]	CLL
242 (IPETASVVAI; listed as Homo sapiens) [compound 242]	AML, CCC, CRC, NSCLCadeno, NSCLCsquam
243 (MARTGGMVVI; listed as Homo sapiens) [compound 243]	CRC, NSCLCadeno, NSCLCsquam
246 (RPILKEQSSSSF; listed as Homo sapiens) [compound 246]	GBC, HNSCC, NSCLCsquam, OSCAR
247 (SPVGVGQRL; listed as Homo sapiens) [compound 247]	SCLC
250 (APAAPAAVPS; listed as Homo sapiens) [compound 250]	CRC, GBM, OC
251 (MPVDSFNSM; listed as Homo sapiens) [compound 251]	MEL, NSCLCadeno, NSCLCsquam, RCC, SCLC, UBC
252 (QPENSLEGISL; listed as Homo sapiens) [compound 252]	NSCLCsquam
253 (MPVDSFNSML; listed as Homo sapiens) [compound 253]	CRC, MEL, NSCLCsquam, SCLC, UBC
255 (VPSHWMVAL; listed as Homo sapiens) [compound 255]	NHL
256 (SPVPSHWMVAL; listed as Homo sapiens) [compound 256]	CLL, NHL
257 (APYGTLRKS; listed as Homo sapiens) [compound 257]	MEL
259 (VPMPGVQAV; listed as Homo sapiens) [compound 259]	UEC
260 (LVQSSRSEV; listed as Homo sapiens) [compound 260]	HNSCC, OSCAR
263 (SQRPPATSQA; listed as Homo sapiens) [compound 263]	AML, BRCA, CCC, CLL, CRC, GBM, HCC, HNSCC, NHL, OC, OSCAR, PACA, PRCA, RCC
264 (APRPGNWIL; listed as Homo sapiens) [compound 264]	MEL, NSCLCsquam
267 (MPVPGILL; listed as Homo sapiens) [compound 267]	MEL
268 (EPLSVTASY; listed as Homo sapiens) [compound 268]	HNSCC
269 (FTVSSSSAM; listed as Homo sapiens) [compound 269]	GBC

Substance	Peptide Presentation on cancer entities
270 (SPRGTTSTL; listed as Homo sapiens) [compound 270]	CCC, CRC, GBC, HCC, NHL
271 (SPTPVFTTL; listed as Homo sapiens) [compound 271]	CRC, GBC
272 (SSPRGTTSTL; listed as Homo sapiens) [compound 272]	GBC, OSCAR
273 (TDTPSTTPTTI; listed as Homo sapiens) [compound 273]	CCC, CRC, GBC, GBM, HCC, MEL, NSCLCadeno, OSCAR, PACA, PRCA, RCC, SCLC, UEC
276 (RPVWDVRSA; listed as Homo sapiens) [compound 276]	HNSCC
278 (LIAARGSLVL; listed as Homo sapiens) [compound 278]	AML, CRC, MEL, NSCLCadeno, OSCAR, SCLC, UEC
279 (APADEPRTVL; listed as Homo sapiens) [compound 279]	NSCLCsquam
280 (LPRAFLQSL; listed as Homo sapiens) [compound 280]	CRC, NHL, NSCLCsquam
284 (RPSAPRGPP; listed as Homo sapiens) [compound 284]	CRC, OSCAR
285 (RITWKGLLL; listed as Homo sapiens) [compound 285]	NSCLCother
286 (APARPAAAF; listed as Homo sapiens) [compound 286]	BRCA, MEL, NSCLCadeno, OC, RCC
287 (SPIPRPLFL; listed as Homo sapiens) [compound 287]	BRCA
288 (LHAMNSLSAM; listed as Homo sapiens) [compound 288]	NHL
289 (LPYEKVSRL; listed as Homo sapiens) [compound 289]	CCC, NHL
291 (SPSKSLEM; listed as Homo sapiens) [compound 291]	CRC
292 (LPMTHRLQL; listed as Homo sapiens) [compound 292]	MEL
293 (FPYDKPLIM; listed as Homo sapiens) [compound 293]	GC, NSCLCadeno
296 (SPLLMQRTL; listed as Homo sapiens) [compound 296]	CLL, NHL
298 (RVLLRWISL; listed as Homo sapiens) [compound 298]	GBM
299 (SPFSGGPVSF; listed as Homo sapiens) [compound 299]	RCC
300 (HPYSDLADVF; listed as Homo sapiens) [compound 300]	MEL
301 (FPAFLEAM; listed as Homo sapiens) [compound 301]	MEL
302 (IPIDQILNSF; listed as Homo sapiens) [compound 302]	MEL
